# Source: PubChem BioAssay AID540256 (National Center for Advancing Translational Sciences (NCATS), 2011)
# About 3,700 (1.2%) of roughly 300,000 compounds were called active. Inconclusive results, whose numbers are uncertain, are shown with a selection of clear calls. The call rests on the fitted dose curve; tested in HEK293 cells. A potency beside an inconclusive call is a rough fit, not a confirmed value.
# Assay: qHTS for Inhibitors of binding or entry into cells for Lassa Virus; further: nearly all actives have a fitted effect of over 50% in size
# Settings: Lassa virus pseudotype entry inhibition, cell reporter; activity change, negative = inhibition: at 37.9 µM (top of the series) unless noted
# On the % scale 0 is the no-effect control and ±100 the full control effect; potency means the concentration at half of the fitted maximal effect.
SMILES,Potency,"activity change, negative = inhibition"
CC(=O)Oc1ccc2ccccc2c1C(NC(=O)C(C)C)c1cccc([N+](=O)[O-])c1 (centres undefined),"inconclusive: 18.3 µM [inhibitor, single point]",
Cc1ccc(N=Nc2c(C)[nH]n(C(N)=S)c2=O)cc1,"inconclusive: 2.82 µM [inhibitor, single point]",
CCc1cc2ccc(C)cc2nc1SCC(=O)Nc1cc(OC)c(OC)cc1C(=O)O,,inactive: 11.8%
Cc1cccc(Nc2nc(NCc3ccco3)nc(N3CCOCC3)n2)c1,"inconclusive: 16.4 µM [inhibitor, single point]",
Cc1cc(Cl)cc(Br)c1OCCCNCC(C)O (centres undefined),,inactive: -6.19% [at 46.1 µM]
COc1ccc(S(=O)(=O)NC(C)C)cc1-n1cnnn1,"inconclusive: 3.16 µM [inhibitor, single point]",
O=C(C(Cc1ccccc1)N1C(=O)c2ccccc2C1=O)N1c2ccccc2CCc2ccccc21 (centres undefined),"inconclusive: 25.9 µM [inhibitor, partial curve]",
C=CCSc1nc(C)c(CC(=O)OCCCC)c(=O)[nH]1,"inconclusive: 0.891 µM [activator, single point]",
COc1ccc(C(C(=O)Nc2ccc(C(C)C)cc2)N(C)C(=O)Cc2cccs2)cc1 (centres undefined),"inconclusive: 14.1 µM [inhibitor, single point]",
O=c1ccc(=O)n2n1CC(O)C2,,inactive: -4.89%
CN(C(=O)CSc1nnc(CN2CCCC2)n1Cc1ccccc1)c1ccccc1,,inactive: 11.9%
CCOC(=O)Cc1csc(NC(=O)Nc2ccc(F)cc2)n1,"inconclusive: 35.5 µM [inhibitor, single point]",
CCOc1ccc(OCC)c(NC(=O)CSc2nc3ccccc3c(=O)n2C)c1,"inconclusive: 32.6 µM [inhibitor, single point]",
COc1ccc(-c2csc(NC(=O)C3CCCCN3S(=O)(=O)c3ccccc3)n2)cc1 (centres undefined),active: 15.8 µM,
COc1ccc(NC(=S)NC(NC(=O)c2cccc(Cl)c2)C(Cl)(Cl)Cl)c([N+](=O)[O-])c1 (centres undefined),"inconclusive: 9.2 µM [inhibitor, partial curve, poor fit]",
COc1ccc(CNC(=O)CSCc2cnn(-c3ccccc3)c2-n2cccc2)cc1OC,"inconclusive: 15.8 µM [inhibitor, single point]",
CC(C)C(=O)N1CCN(c2ccccc2NC(=O)c2cccc(Cl)c2)CC1,"inconclusive: 23.1 µM [inhibitor, single point]",
O=C(NC(=S)NCc1cccnc1)c1ccccc1F,"inconclusive: 1.12 µM [inhibitor, full curve, poor fit]",
COc1cccc(NC(=O)CCc2nc(-c3ccccc3F)no2)c1,,inactive: 16.2%

# Ordered by SMILES length (low to high): 5 of the compounds above.
SMILES,Potency,"activity change, negative = inhibition"
CCOC(=O)Cc1csc(NC(=O)Nc2ccc(F)cc2)n1,"inconclusive: 35.5 µM [inhibitor, single point]",
Cc1cccc(Nc2nc(NCc3ccco3)nc(N3CCOCC3)n2)c1,"inconclusive: 16.4 µM [inhibitor, single point]",
CCOc1ccc(OCC)c(NC(=O)CSc2nc3ccccc3c(=O)n2C)c1,"inconclusive: 32.6 µM [inhibitor, single point]",
COc1ccc(-c2csc(NC(=O)C3CCCCN3S(=O)(=O)c3ccccc3)n2)cc1 (centres undefined),active: 15.8 µM,
COc1ccc(NC(=S)NC(NC(=O)c2cccc(Cl)c2)C(Cl)(Cl)Cl)c([N+](=O)[O-])c1 (centres undefined),"inconclusive: 9.2 µM [inhibitor, partial curve, poor fit]",
